Experimental data: doi:10.1101/350686

Amino acid sequences for entries named in this document (tags omitted).
UniProt Q8TEQ6, whole entry: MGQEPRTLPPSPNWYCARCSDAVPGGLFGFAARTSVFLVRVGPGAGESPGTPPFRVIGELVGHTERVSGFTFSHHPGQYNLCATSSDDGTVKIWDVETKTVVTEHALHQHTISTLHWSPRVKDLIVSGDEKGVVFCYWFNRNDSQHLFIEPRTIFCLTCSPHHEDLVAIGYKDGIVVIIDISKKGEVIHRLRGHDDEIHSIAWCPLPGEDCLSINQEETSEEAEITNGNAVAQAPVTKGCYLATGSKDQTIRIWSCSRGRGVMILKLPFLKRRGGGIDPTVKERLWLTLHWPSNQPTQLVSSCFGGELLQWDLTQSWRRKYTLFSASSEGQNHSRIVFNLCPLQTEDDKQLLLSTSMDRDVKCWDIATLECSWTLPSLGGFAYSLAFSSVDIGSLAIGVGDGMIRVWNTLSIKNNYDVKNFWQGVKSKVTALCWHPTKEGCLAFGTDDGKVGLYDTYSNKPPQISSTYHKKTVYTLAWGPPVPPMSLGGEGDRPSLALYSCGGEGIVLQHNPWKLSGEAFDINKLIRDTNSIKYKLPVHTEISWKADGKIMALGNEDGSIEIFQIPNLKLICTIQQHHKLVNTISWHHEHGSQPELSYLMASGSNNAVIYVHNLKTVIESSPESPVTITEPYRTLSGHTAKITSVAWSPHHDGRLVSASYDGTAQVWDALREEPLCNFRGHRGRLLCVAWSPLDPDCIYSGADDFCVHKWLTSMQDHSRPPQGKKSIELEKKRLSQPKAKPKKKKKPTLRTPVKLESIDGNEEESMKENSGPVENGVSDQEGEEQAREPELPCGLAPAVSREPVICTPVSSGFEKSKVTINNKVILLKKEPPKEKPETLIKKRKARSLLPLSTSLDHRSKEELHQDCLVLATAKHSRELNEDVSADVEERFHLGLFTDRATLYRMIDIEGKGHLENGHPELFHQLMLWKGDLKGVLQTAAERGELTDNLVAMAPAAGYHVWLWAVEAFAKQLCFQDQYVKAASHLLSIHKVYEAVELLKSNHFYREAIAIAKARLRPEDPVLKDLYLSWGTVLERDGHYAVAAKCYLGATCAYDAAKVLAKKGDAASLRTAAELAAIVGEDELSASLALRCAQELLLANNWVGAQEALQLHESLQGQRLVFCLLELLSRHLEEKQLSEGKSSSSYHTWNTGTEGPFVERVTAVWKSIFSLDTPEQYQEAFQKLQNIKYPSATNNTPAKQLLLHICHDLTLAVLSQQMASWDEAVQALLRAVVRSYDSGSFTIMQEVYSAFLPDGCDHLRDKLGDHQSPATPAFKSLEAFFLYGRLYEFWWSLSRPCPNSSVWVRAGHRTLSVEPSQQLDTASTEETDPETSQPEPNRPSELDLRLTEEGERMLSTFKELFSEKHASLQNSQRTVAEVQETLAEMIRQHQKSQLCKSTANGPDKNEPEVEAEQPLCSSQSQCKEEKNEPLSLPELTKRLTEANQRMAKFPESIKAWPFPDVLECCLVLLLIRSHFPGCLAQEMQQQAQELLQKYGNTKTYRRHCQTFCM

Target: GEMIN5-eGFP (UniProt Q8TEQ6)
Assay: affinity purification with mass spectrometry

Substance | binding
SINV NSP1 (from UniProt P03317 1-540) | binds
SINV NSP2 (from UniProt P03317 541-1347) | binds

Results are given in words; binding and its absence hold for the method and conditions named. Binding seen in cells or lysates may run through a third protein. Here binding means that the protein was enriched with, or labelled near, the bait; the list need not be complete.
